Results: PubChem BioAssay AID2662 (National Center for Advancing Translational Sciences (NCATS), 2010)
Hit rate of the full screen: of about 290,000 compounds, about 110 (0.038%) were called active. This list was built around the results that the source calls inconclusive (neither active nor inactive); the mix of calls is not that of the screen. Calls come from the whole dose curve; as a rule, active = well fitted inhibition curve with a large enough effect in the polarisation, with a control signal flat (not every such curve was filed as active); inconclusive = small, poorly fitted or top-dose-only effect, or effect the other way, or a change in a side signal; inactive = no such curve, though single readings can be large or run the other way; the % refers to the polarisation. Potencies beside an inconclusive call are fits to weak or partial responses and may not hold up. “Side channel” marks fits to a control or component signal instead of the main read-out.

Protein sequences, listed by entry. Tags and fused reporters are not part of them.
UniProt Q03164, whole entry, looked up: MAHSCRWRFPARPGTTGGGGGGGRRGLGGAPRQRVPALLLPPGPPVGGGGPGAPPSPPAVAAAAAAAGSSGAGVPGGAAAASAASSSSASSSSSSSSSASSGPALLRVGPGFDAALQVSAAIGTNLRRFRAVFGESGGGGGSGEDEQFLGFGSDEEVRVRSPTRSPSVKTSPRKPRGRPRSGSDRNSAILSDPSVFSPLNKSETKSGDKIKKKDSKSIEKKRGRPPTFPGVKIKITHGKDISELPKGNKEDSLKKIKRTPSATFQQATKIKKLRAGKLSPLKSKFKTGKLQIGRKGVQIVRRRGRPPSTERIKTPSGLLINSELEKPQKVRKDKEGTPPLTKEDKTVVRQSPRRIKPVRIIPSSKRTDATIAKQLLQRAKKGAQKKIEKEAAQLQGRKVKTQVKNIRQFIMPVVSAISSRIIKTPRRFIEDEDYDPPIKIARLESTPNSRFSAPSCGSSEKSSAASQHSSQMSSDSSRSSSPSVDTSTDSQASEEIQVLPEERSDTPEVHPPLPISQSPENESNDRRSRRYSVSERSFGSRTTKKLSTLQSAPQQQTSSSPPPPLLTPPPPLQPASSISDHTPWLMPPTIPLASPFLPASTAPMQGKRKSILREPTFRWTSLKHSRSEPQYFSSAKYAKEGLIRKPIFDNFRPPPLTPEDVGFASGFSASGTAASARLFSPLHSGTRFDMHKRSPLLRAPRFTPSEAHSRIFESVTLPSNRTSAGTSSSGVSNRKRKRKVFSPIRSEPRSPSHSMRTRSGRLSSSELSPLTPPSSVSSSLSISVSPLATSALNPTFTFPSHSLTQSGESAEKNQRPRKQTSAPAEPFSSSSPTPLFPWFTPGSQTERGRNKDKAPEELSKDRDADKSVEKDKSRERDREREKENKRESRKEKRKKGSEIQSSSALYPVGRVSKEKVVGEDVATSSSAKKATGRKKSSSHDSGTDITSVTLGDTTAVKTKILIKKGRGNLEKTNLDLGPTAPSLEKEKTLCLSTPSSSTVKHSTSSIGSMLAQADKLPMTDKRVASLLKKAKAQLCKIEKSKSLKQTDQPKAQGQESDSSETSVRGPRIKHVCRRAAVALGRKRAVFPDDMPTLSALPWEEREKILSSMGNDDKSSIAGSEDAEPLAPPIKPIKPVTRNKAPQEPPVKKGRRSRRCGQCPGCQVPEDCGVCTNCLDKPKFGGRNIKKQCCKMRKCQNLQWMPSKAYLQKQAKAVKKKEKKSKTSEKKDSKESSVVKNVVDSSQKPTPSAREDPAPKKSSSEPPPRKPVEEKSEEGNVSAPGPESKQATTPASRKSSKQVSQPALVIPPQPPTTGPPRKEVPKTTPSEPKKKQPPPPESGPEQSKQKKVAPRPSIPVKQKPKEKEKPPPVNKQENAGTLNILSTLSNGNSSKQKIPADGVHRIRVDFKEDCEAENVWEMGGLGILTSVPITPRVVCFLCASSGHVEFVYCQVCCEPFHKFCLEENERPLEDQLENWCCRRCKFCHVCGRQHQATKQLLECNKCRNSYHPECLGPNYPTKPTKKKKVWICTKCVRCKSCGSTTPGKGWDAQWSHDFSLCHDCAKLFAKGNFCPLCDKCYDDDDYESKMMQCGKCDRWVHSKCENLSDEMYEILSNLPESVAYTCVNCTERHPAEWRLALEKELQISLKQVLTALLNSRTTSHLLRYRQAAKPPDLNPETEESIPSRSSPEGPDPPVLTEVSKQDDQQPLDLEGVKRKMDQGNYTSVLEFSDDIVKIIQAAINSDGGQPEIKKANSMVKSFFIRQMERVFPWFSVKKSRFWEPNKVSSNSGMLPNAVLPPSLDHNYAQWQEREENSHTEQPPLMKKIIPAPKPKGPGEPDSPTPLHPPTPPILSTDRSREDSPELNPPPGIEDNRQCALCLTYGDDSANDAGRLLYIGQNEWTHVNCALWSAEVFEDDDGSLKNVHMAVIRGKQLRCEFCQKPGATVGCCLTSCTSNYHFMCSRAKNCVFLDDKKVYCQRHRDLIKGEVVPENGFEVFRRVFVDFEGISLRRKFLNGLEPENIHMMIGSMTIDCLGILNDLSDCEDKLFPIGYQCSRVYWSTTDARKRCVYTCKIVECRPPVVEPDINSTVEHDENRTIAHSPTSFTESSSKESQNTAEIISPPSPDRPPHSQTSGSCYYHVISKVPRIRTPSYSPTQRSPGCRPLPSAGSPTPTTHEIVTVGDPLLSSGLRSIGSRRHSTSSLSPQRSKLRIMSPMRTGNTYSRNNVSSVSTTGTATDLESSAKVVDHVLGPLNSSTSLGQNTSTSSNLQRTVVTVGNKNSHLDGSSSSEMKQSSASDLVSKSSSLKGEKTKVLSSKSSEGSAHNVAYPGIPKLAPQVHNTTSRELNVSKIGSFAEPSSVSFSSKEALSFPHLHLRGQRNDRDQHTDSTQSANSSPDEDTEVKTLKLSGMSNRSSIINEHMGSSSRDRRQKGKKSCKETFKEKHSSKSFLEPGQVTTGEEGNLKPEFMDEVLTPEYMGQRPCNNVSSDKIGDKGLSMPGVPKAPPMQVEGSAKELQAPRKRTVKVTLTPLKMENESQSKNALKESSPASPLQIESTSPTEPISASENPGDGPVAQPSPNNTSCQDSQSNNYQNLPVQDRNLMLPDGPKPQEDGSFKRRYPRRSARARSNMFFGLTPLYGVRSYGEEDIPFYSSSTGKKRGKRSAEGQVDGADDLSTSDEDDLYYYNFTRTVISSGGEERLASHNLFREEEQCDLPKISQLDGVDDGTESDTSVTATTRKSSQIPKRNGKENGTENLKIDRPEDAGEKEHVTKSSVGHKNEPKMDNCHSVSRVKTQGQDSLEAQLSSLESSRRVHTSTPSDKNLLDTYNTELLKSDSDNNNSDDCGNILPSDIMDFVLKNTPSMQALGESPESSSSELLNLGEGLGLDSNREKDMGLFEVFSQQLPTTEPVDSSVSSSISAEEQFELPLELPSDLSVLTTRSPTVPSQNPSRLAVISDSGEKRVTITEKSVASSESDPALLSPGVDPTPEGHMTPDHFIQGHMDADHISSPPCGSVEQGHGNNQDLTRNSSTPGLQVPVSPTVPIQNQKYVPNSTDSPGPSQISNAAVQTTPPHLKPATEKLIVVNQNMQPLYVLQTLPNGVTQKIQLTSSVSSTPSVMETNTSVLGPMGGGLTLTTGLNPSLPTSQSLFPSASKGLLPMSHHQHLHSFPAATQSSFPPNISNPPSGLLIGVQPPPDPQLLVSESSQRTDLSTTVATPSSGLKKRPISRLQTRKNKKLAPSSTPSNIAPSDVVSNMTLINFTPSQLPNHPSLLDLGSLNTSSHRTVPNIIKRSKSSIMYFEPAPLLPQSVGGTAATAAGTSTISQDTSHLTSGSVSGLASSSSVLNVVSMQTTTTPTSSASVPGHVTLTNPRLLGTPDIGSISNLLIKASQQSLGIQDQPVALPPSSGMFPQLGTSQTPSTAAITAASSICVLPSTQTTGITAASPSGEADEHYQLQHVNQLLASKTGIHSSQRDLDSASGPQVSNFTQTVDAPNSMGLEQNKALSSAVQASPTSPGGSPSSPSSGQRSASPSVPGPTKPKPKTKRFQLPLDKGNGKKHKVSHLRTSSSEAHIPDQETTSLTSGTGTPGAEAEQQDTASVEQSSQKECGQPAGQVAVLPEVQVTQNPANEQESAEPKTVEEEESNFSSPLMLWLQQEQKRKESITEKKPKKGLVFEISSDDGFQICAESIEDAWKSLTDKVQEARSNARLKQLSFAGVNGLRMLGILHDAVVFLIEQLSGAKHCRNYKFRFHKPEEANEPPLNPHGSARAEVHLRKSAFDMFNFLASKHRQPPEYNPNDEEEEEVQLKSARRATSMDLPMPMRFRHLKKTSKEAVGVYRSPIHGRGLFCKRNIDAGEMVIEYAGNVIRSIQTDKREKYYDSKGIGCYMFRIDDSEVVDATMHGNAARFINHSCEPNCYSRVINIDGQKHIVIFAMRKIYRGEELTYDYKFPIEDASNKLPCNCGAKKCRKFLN

These molecules were tested against Histone-lysine N-methyltransferase 2A (Homo sapiens) (UniProt Q03164) (assay: qHTS Fluorescence Polarization Assay for Inhibitors of MLL CXXC domain - DNA interaction). Conditions: MLL-CXXC / FITC-HOXA9 DNA fluorescence polarization; activity change, negative = inhibition: at 115 µM (top of the series).
Procedure, shortened: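 Fluorescence polarization: 7 uM MLL-CXXC (stock) preincubated 5 min with compounds, then 50 nM fluorescein-HOX-A9 DNA (stock) added; 30 min ambient. Buffer 50 mM Tris-HCl pH 7.5, 50 mM NaCl, 1 mM DTT, 0.05% BSA.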
Potency is the fitted concentration of half-maximal effect.

Compound	activity change, negative = inhibition	Potency
O=C(CC1SC(=O)N(c2ccccc2)C1=O)Nc1ccccc1 (stereo unspecified)	inactive: 30.9%	–
CC(=O)C1=C(C)OC2(O)c3ccccc3C(=O)C12O (stereo unspecified)	–	inconclusive: 14.1 µM [inhibitor, full curve, poor fit]
Cc1ccc(/C(O)=C2/C(=O)C(=O)OC2c2ccc(Cl)cc2)cc1 (stereo unspecified)	–	inconclusive: 10 µM [inhibitor, full curve]
CC1CCCC(C)N1/N=C/c1ccc(O)cc1 (stereo unspecified)	–	inconclusive: 17.8 µM [inhibitor, partial curve]
COc1ccc(C(NC(=O)c2cccnc2)c2cc(Cl)c3cccnc3c2O)cc1OC (stereo unspecified)	–	inconclusive: 31.6 µM [fluorescent, partial curve]
C(=N\Nc1ccccn1)/c1ccc(N2CCOCC2)cc1	–	inconclusive: 14.1 µM [fluorescent, side channel, partial curve]
COc1ccc(C[C@H]2CN3C(=NC[C@@H]3Cc3ccccc3)N2C[C@H](C)NC(=O)CCC2CCCCC2)cc1	–	inconclusive: 63.1 µM [quencher, side channel, single point]
COC(=O)c1cc(NC(=O)c2c(Cl)nc3sccn23)cc(C(=O)OC)c1	inactive: 5.24%	–
CCOCCCNC(=O)C1(O)c2ccccc2NC(=O)N1c1ccc(C)c(C)c1 (stereo unspecified)	–	inconclusive: 14.1 µM [fluorescent, side channel, single point]
O=C(COc1ccc(Cl)cc1Cl)N/N=C/c1ccccn1	inactive: 24%	–
NS(=O)(=O)c1cccc(NC(=O)CSc2nc3ccc(Cl)cc3[nH]2)c1	–	inconclusive: 100 µM [fluorescent, side channel, partial curve, poor fit]
O=C1C(NS(=O)(=O)c2ccc(Cl)cc2)=C(N2CCCCC2)C(=O)c2ccccc21	inactive: 5.99%	–
Cc1nc(NC(=O)c2cnccn2)ccc1Br	inactive: 32.4%	–
COc1ccc(C)cc1NC(=O)CN1CCN(S(=O)(=O)c2ccc(Br)cc2)CC1	–	inconclusive: 70.8 µM [inhibitor, partial curve]
Cc1cn(C2OC(COC(=O)c3ccccc3)C(O)C2O)c(=O)[nH]c1=O (stereo unspecified)	–	inconclusive: 10 µM [fluorescent, side channel, single point]
Fc1ccc(C2=CC(c3ccc(Br)o3)n3ncnc3N2)cc1 (stereo unspecified)	inactive: 6.64%	–
CCc1cccc(OCC(=O)Nc2ccc(S(=O)(=O)Nc3ccccn3)cc2)c1	–	inconclusive: 89.1 µM [inhibitor, single point]
Cc1c(CCC(=O)N[C@@H](CC(C)C)C(=O)O)c(=O)oc2cc3oc4c(c3cc12)CCCC4	–	inconclusive: 63.1 µM [inhibitor, single point]
CN(C)CCCN1C(=O)C2CCc3[nH]c4ccccc4c3C2C1=O (stereo unspecified)	–	inconclusive: 14.1 µM [inhibitor, single point]
CCOC1=C/C(=C/c2c(N)n3nc(CC(=O)N4CCCC4)sc3nc2=O)C=CC1=O	–	inconclusive: 28.2 µM [fluorescent, side channel, partial curve]
Cc1cc(NC(=O)CCc2ccc(-c3ccccc3)o2)no1	–	inconclusive: 15.8 µM [fluorescent, side channel, single point]

Quoted from the listing.
Fc1ccc(C2=CC(c3ccc(Br)o3)n3ncnc3N2)cc1 (stereo unspecified) | activity change, negative = inhibition: inactive: 6.64%
Cc1c(CCC(=O)N[C@@H](CC(C)C)C(=O)O)c(=O)oc2cc3oc4c(c3cc12)CCCC4 | Potency: inconclusive: 63.1 µM [inhibitor, single point]

Whole records, quoted from the list. Order of values: activity change, negative = inhibition | Potency
CCc1cccc(OCC(=O)Nc2ccc(S(=O)(=O)Nc3ccccn3)cc2)c1 as listed: – | inconclusive: 89.1 µM [inhibitor, single point]
Cc1cc(NC(=O)CCc2ccc(-c3ccccc3)o2)no1 as listed: – | inconclusive: 15.8 µM [fluorescent, side channel, single point]
C(=N\Nc1ccccn1)/c1ccc(N2CCOCC2)cc1 as listed: – | inconclusive: 14.1 µM [fluorescent, side channel, partial curve]

(next part)

Compound	activity change, negative = inhibition	Potency
CCO[C@@H]1OC(C(=O)N2CCN(Cc3ccc4c(c3)OCO4)CC2)=C[C@H](C)[C@H]1CCCO	–	inconclusive: 35.5 µM [inhibitor, single point]
Cn1nc(NC(=O)C(F)(F)F)c2ncc(-c3ccc(Cl)cc3)nc21	–	inconclusive: 39.8 µM [fluorescent, side channel, single point]
Cc1nc2ccc(Br)cc2c2c1CC(CBr)O2 (stereo unspecified)	inactive: 0.375%	–
O=C(Nc1ncn[nH]1)c1ccc(S(=O)(=O)N2CCOCC2)cc1	–	inconclusive: 39.8 µM [inhibitor, single point]
Cc1ccc(S(=O)(=O)n2cnc3cc([N+](=O)[O-])ccc32)c(C)c1C	–	inconclusive: 70.8 µM [inhibitor, single point]
COc1ccc(S(=O)(=O)N2CCN=C2SCc2cccc(C)c2)cc1	–	inconclusive: 14.1 µM [fluorescent, side channel, single point]
Cc1c(Cl)cccc1NC(=O)Cc1ccc([N+](=O)[O-])cc1	–	inconclusive: 89.1 µM [fluorescent, side channel, single point]
O=C(NCc1ccc2c(c1)OCO2)C1CCN(S(=O)(=O)c2ccc(Br)s2)CC1	inactive: -4.58%	–
COc1ccccc1N(C)S(=O)(=O)c1ccc(Cl)c(C(=O)NNC(=O)c2ccccc2O)c1	–	inconclusive: 39.8 µM [inhibitor, single point]
O=C(Cc1cccc(C(F)(F)F)c1)Nc1cccc(S(=O)(=O)N2CCCC2)c1	–	inconclusive: 14.1 µM [fluorescent, side channel, single point]
C(=Nc1ccc(N2CCOCC2)cc1)c1c[nH]c2ccccc12	inactive: 8.76%	–
CCN(CC)S(=O)(=O)c1cc(C(=O)OCC(=O)Nc2c(F)cccc2F)ccc1F	–	inconclusive: 15.8 µM [fluorescent, side channel, single point]
COc1ccc(S(=O)(=O)N(C(=O)c2ccco2)c2cc3sc(=O)oc3c3ccccc23)cc1	–	inconclusive: 15.8 µM [fluorescent, side channel, single point]
CCC1=NN2C(=N)/C(=C\c3ccc(OCCOc4ccccc4OC)cc3)C(=O)N=C2S1	–	inconclusive: 6.31 µM [inhibitor, full curve]
CCN1CC=C2C(C#N)=C(N)C(C#N)(C#N)C(CCc3ccccc3)C2C1 (stereo unspecified)	–	inconclusive: 35.5 µM [fluorescent, side channel, single point]
CCOc1ccc(C(C)NC(=S)NCc2ccc(Cl)cc2)cc1 (stereo unspecified)	–	inconclusive: 50.1 µM [inhibitor, single point]
O=C(N/N=C/c1sc2ccccc2c1O)c1ccccc1	–	inconclusive: 22.4 µM [fluorescent, side channel, partial curve]
CCN1CCN(CCCN(Cc2ccco2)C(=S)Nc2ccccc2Cl)CC1	–	inconclusive: 11.2 µM [fluorescent, side channel, full curve]
Cc1cc(NC(=O)/C(C#N)=C/c2ccc(-c3cccc(C(F)(F)F)c3)o2)n(-c2ccccc2)n1	inactive: -2.19%	–
CC1(C)Cc2c(c(N3CCOCC3)nc3sc4c(NN)ncnc4c23)CS1	–	inconclusive: 25.1 µM [quencher, side channel, partial curve, poor fit]
Cc1cc(NC(=O)Cn2c(=O)n(CCCCC(=O)NC3CCN(Cc4ccccc4)CC3)c(=O)c3ccccc32)n[nH]1	–	inconclusive: 70.8 µM [fluorescent, side channel, single point]

Compound	activity change, negative = inhibition	Potency
CNC(=S)N(Cc1ccc(OC)cc1)Cc1cc2cc(C)ccc2[nH]c1=O	–	inconclusive: 11.2 µM [inhibitor, full curve, poor fit]
COc1cc(OC)cc(C(=O)NCc2ccc3c(c2)cc(C)n3C)c1	–	inconclusive: 31.6 µM [fluorescent, side channel, partial curve]
CN1CC=C2C(C#N)=C(N)C(C#N)(C#N)C(Cc3ccccc3)C2C1 (stereo unspecified)	–	inconclusive: 56.2 µM [inhibitor, single point]
CN1CCN(CCCNCc2cn(CCC#N)c3ccccc23)CC1	–	inconclusive: 35.5 µM [fluorescent, side channel, partial curve]
COc1cccc(Cn2c(=O)ccc3ccccc32)c1	–	inconclusive: 3.16 µM [fluorescent, side channel, full curve]
CC[n+]1c(C)cc2c(sc3ccccc32)c1C	inactive: 4.97%	–
Cc1ccc(C)c(NC(=O)CCN2CCN(c3ccccc3F)CC2)c1	–	inconclusive: 39.8 µM [fluorescent, side channel, single point]
O=C(c1ccc(Cl)cc1)N1CCC(O)(CSc2ccc(Cl)cc2)CC1	inactive: 0.222%	–
O=C(NCC1COc2ccccc2O1)c1c[nH]c2ccc(S(=O)(=O)N3CCOCC3)cc2c1=O (stereo unspecified)	inactive: 2.99%	–
COc1ccc(N2C(=O)CC(Cc3ccccc3OC)C2=O)cc1 (stereo unspecified)	inactive: 2.02%	–
Cn1c(SCC(=O)Nc2ccccc2[N+](=O)[O-])nnc1C(F)(F)F	inactive: -0.95%	–
COc1cccc(C(CC(=O)NCc2ccco2)NS(=O)(=O)c2ccc(C)cc2)c1OC (stereo unspecified)	–	inconclusive: 35.5 µM [quencher, side channel, single point]
CCO[C@@H]1OC(C(=O)Nc2ccccc2)=C[C@H](C2CC2)[C@H]1CCCO	–	inconclusive: 70.8 µM [inhibitor, single point]
Cc1ccc(/C=C/C(=O)Nc2ccc(Oc3ccccc3)cc2)o1	–	inconclusive: 10 µM [inhibitor, single point]
O=C(NC1CC1)C1=C[C@H](c2ccc(C(F)(F)F)cc2)C[C@H](OCc2ccc(CO)cc2)O1	–	inconclusive: 100 µM [inhibitor, partial curve, poor fit]
CCn1cc(S(=O)(=O)N2CCCC2)cn1	–	inconclusive: 1.58 µM [fluorescent, side channel, full curve]
COc1ccc(C)cc1NC(=O)NNS(=O)(=O)c1ccc(NC(C)=O)cc1	–	inconclusive: 14.1 µM [fluorescent, side channel, single point]
Cc1ccc(Nc2nc(N)nc(CN3CCN(Cc4ccc5c(c4)OCO5)CC3)n2)cc1C	inactive: 14.4%	–
CC(=O)c1ccc(NC(=O)c2c(C)nn(-c3ccccc3)c2Cl)cc1	–	inconclusive: 100 µM [inhibitor, partial curve, poor fit]
